From paper PMC4534796
Substitutions are numbered along the chain they refer to. Names and notes keep the numbering of the source. No constants are given. Whether binding was seen depends on the method and setting. In cells and extracts the contact can be indirect. Sequences can lack the tags named with a protein. One block for each binder: values may come before it.

Biological target: T1, Flag-tagged NDRG2 (N-myc downstream-regulated gene 2), transfected in 293T cells (UniProt Q9UN36)
T1 sequence: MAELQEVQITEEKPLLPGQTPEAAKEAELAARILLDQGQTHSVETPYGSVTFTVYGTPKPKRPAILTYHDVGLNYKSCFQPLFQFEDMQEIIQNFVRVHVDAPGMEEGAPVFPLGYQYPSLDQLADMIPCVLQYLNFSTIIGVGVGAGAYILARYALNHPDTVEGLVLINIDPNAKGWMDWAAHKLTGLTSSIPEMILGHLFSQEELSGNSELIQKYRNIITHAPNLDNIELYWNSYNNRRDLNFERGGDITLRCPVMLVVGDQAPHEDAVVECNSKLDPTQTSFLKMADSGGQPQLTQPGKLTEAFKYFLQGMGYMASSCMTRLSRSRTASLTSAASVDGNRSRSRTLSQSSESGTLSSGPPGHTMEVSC
Assay: co-IP; lysates of 293T cells co-transfected with HA-NIK (WT or mutant) and Flag-NDRG2; immunoprecipitated with anti-Flag and with anti-HA antibodies, Western blot

- binding: no binding
B1: HA-tagged NIK-T559A (protein, UniProt Q99558 1-947)
chain: MAVMEMACPGAPGSAVGQQKELPKAKEKTPPLGKKQSSVYKLEAVEKSPVFCGKWEILNDVITKGTAKEGSEAGPAAISIIAQAECENSQEFSPTFSERIFIAGSKQYSQSESLDQIPNNVAHATEGKMARVCWKGKRRSKARKKRKKKSSKSLAHAGVALAKPLPRTPEQESCTIPVQEDESPLGAPYVRNTPQFTKPLKEPGLGQLCFKQLGEGLRPALPRSELHKLISPLQCLNHVWKLHHPQDGGPLPLPTHPFPYSRLPHPFPFHPLQPWKPHPLESFLGKLACVDSQKPLPDPHLSKLACVDSPKPLPGPHLEPSCLSRGAHEKFSVEEYLVHALQGSVSSGQAHSLTSLAKTWAARGSRSREPSPKTEDNEGVLLTEKLKPVDYEYREEVHWATHQLRLGRGSFGEVHRMEDKQTGFQCAVKKVRLEVFRAEELMACAGLTSPRIVPLYGAVREGPWVNIFMELLEGGSLGQLVKEQGCLPEDRALYYLGQALEGLEYLHSRRILHGDVKADNVLLSSDGSHAALCDFGHAVCLQPDGLGKSLLTGDYIPGAETHMAPEVVLGRSCDAKVDVWSSCCMMLHMLNGCHPWTQFFRGPLCLKIASEPPPVREIPPSCAPLTAQAIQEGLRKEPIHRVSAAELGGKVNRALQQVGGLKSPWRGEYKEPRHPPPNQANYHQTLHAQPRELSPRAPGPRPAEETTGRAPKLQPPLPPEPPEPNKSPPLTLSKEESGMWEPLPLSSLEPAPARNPSSPERKATVPEQELQQLEIELFLNSLSQPFSLEEQEQILSCLSIDSLSLSDDSEKNPSKASQSSRDTLSSGVHSWSSQAEARSSSWNMVLARGRPTDTPSYFNGVKVQIQSLNGEHLHIREFHRVKVGDIATGISSQIPAAAFSLVTKDGQPVRYDMEVPDSGIDLQCTLAPDGSFAWSWRVKHGQLENRP

- binding: no binding
B2: HA-tagged NIK-KK429/430AA (kinase-dead NIK mutant) (protein, UniProt Q99558 1-947)
chain: B1 chain with K429A, K430A, A559T
